Reference: PubChem BioAssay AID504791 (Drosophila RNAi Screening Center, 2011)
In all, the deposit lists about 23,000 reagents; below is an unselected part of those that have a named target and a result. Over the whole deposit, 199 (0.86%) are marked active. 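Plate-scaled ratios behind the calls are not deposited; printed light signals are raw; many rows marked increased or decreased are still called inactive.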 The numbers tell different reagents against one gene apart. Names joined by + are all predicted targets of the reagent. No sequences are given here. Not given: the direction of the score.

- Test: 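Genes of the fly required for silencing by miRNA, siRNA or endo-siRNA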 (primary screen)
- System: Drosophila S2-derived reporter cells
- Reagent: long dsRNA against Drosophila genes, about 150-250 ng dsRNA per well (siRNA assay); about 80-120 ng (miRNA assay)
- Time to read-out: about 5 days (siRNA assay); about 4 days (miRNA assay)
- Conditions: copper sulfate induction of reporters: 25 µM (siRNA assay); 200 mM stated (miRNA assay), 1-2 days before reading
- Measured: 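Per-well ratio of Renilla over firefly light, expressed relative to that plate's average ratio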
- Units: stable assay Renilla, run 1 in luminescence; stable assay firefly, run 1 in luminescence
- Call rule: 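First-pass picks had plate-scaled ratios over 1.5 for the siRNA assay, over 1.6 for the miRNA assay, or under 0.6; two distinct dsRNAs had to score alike on retest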

CG17104
- miRNA reporter change: reporter ratio lowered past the hit cutoff
- stable assay Renilla, run 1: 6099
- stable assay firefly, run 1: 8.25e5
- call: inactive

Ir7c (Ionotropic receptor 7c)
- stable assay Renilla, run 1: 6034
- stable assay firefly, run 1: 3.59e5
- call: inactive

CR34254 (pseudo)
- stable assay Renilla, run 1: 5395
- stable assay firefly, run 1: 3.92e5
- call: inactive

Amy-d (Amylase distal)
- stable assay Renilla, run 1: 6127
- stable assay firefly, run 1: 2.82e5
- call: inactive

CG9458
- stable assay Renilla, run 1: 6438
- stable assay firefly, run 1: 4.12e5
- call: inactive

mia (meiosis I arrest)
- stable assay Renilla, run 1: 7602
- stable assay firefly, run 1: 3.89e5
- call: inactive

CG3253
- stable assay Renilla, run 1: 9247
- stable assay firefly, run 1: 1.76e6
- call: inactive

CG7024
- stable assay Renilla, run 1: 5446
- stable assay firefly, run 1: 2.77e5
- call: inactive

BaraA1 + BaraA2
- stable assay Renilla, run 1: 5615
- stable assay firefly, run 1: 3.67e5
- call: inactive

ND-MLRQ (NADH dehydrogenase (ubiquinone) MLRQ subunit)
- stable assay Renilla, run 1: 4668
- stable assay firefly, run 1: 3.81e5
- call: inactive

CG13605
- stable assay Renilla, run 1: 8483
- stable assay firefly, run 1: 3.31e5
- call: inactive

car (carnation)
- stable assay Renilla, run 1: 6970
- stable assay firefly, run 1: 5.88e5
- call: inactive

PGRP-SB1 (Peptidoglycan recognition protein SB1)
- stable assay Renilla, run 1: 7151
- stable assay firefly, run 1: 4.14e5
- call: inactive

Cat (Catalase)
- stable assay Renilla, run 1: 6367
- stable assay firefly, run 1: 4.15e5
- call: inactive

CG14650
- stable assay Renilla, run 1: 4167
- stable assay firefly, run 1: 5.09e5
- call: inactive

spz3 (spatzle 3) #1
- stable assay Renilla, run 1: 7911
- stable assay firefly, run 1: 4.41e5
- call: inactive

spz3 (spatzle 3) #2
- stable assay Renilla, run 1: 7359
- stable assay firefly, run 1: 3.54e5
- call: inactive

Nepl16 (Neprilysin-like 16)
- stable assay Renilla, run 1: 6660
- stable assay firefly, run 1: 3.70e5
- call: inactive

CG14882
- stable assay Renilla, run 1: 8134
- stable assay firefly, run 1: 3.23e5
- call: inactive

2 entries already listed, sorted by “stable assay firefly, run 1”, lowest first.
CG14882
- stable assay Renilla, run 1: 8134
- stable assay firefly, run 1: 3.23e5
- call: inactive

Nepl16 (Neprilysin-like 16)
- stable assay Renilla, run 1: 6660
- stable assay firefly, run 1: 3.70e5
- call: inactive
